PubChem BioAssay AID504795 | Drosophila RNAi Screening Center, 2011
Only reagents picked out of a larger screen are listed. 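Every listed dsRNA shows some phenotype; how reagents were selected for listing is not stated.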 Names joined by + are all predicted targets of the reagent.

Purpose: 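Fly genes whose loss alters neurite growth or neural cell form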 (primary screen)
System: primary Drosophila neurons and glia
Reagent: long dsRNA against Drosophila genes, 250 ng dsRNA per well
Duration: one week
Measurement: 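Descriptive morphology terms assigned by visual inspection of live automated images of GFP-marked cells, taken one week after adding 250 ng dsRNA per well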

The first 10 entries as a preview:
| predicted target | amplicon | phenotype seen, replicate 1 | phenotype seen, replicate 2 |
| --- | --- | --- | --- |
| CG9135 | DRSC03144 | reduced axon outgrowth | – |
| Spn43Ad | DRSC06770 | axon bundles split apart | – |
| EloA | DRSC16109 | cell fragments present | – |
| Map205 | DRSC16732 | cell fragments present | – |
| Hug | DRSC16969 | too many neurite branches | – |
| faf | DRSC16942 | abnormal cell clusters | – |
| tinc | DRSC14799 | axon bundles split apart | – |
| tinc | DRSC16309 | reduced axon outgrowth | – |
| CG34353 | DRSC14517 | too many neurite branches | – |
| CG7362 | DRSC16236 | abnormal cell clusters | – |

The list itself, from the start:
| predicted target | amplicon | phenotype seen, replicate 1 | phenotype seen, replicate 2 |
| --- | --- | --- | --- |
| CG9135 | DRSC03144 | reduced axon outgrowth | – |
| Spn43Ad | DRSC06770 | axon bundles split apart | – |
| EloA | DRSC16109 | cell fragments present | – |
| Map205 | DRSC16732 | cell fragments present | – |
| Hug | DRSC16969 | too many neurite branches | – |
| faf | DRSC16942 | abnormal cell clusters | – |
| tinc | DRSC14799 | axon bundles split apart | – |
| tinc | DRSC16309 | reduced axon outgrowth | – |
| CG34353 | DRSC14517 | too many neurite branches | – |
| CG7362 | DRSC16236 | abnormal cell clusters | – |
| CG10257 | DRSC05985 | axon bundles split apart | – |
| QIL1 | DRSC10888 | sheet-like cell extensions | – |
| ZnT77C | DRSC11766 | axon bundles split apart | – |
| CG6503 | DRSC16056 | abnormal cell clusters | – |
| CG17493 | DRSC03798 | fewer cells | – |
| Cadps | DRSC21057 | sheet-like cell extensions | – |
| Sap30 | DRSC19916 | too many neurite branches | – |
| CG13029 | DRSC09909 | too many neurite branches | – |
| CG34355 | DRSC13639 | abnormal cell clusters | – |
| CG34355 | DRSC21687 | too many neurite branches | – |
| CG6686 | DRSC02979 | beaded; swollen axons | – |
| CG42700 | DRSC06292 | too many neurite branches | – |
| Rbbp5 + CG6434 (retired record) | DRSC10635 | reduced axon outgrowth | – |
| CG17742 (retired record) | DRSC10285 | sheet-like cell extensions | – |
| Ugt49C1 | DRSC04252 | axon bundles split apart | – |
| Sec61beta | DRSC07548 | axon bundles split apart | fewer cells |
| Sec61beta | DRSC21512 | axon bundles split apart | – |
| CG44001 + CG33995 | DRSC00853 | abnormal cell clusters | – |
| CG44001 + CG33995 | DRSC02898 | axon bundles split apart | – |
| Polr3K + Tcs1 | DRSC05988 | axon bundles split apart | – |
| Him | DRSC19638 | fewer cells | – |
| CG3630 | DRSC18499 | cell fragments present | – |
| crok | DRSC02593 | abnormal cell clusters | – |
| Muc91C | DRSC21696 | beaded; swollen axons | too many neurite branches |
| RpL13A | DRSC12265 | abnormal cell clusters | – |
| GC2 | DRSC14476 | axon bundles split apart | – |
| CG8613 | DRSC07222 | axon bundles split apart | – |
| RapGAP1 | DRSC02293 | too many neurite branches | – |
| CG15107 | DRSC06534 | fewer cells | – |
| pea | DRSC07120 | axon bundles split apart | – |
| Rcd-1 | DRSC19569 | too many neurite branches | – |
| Kank | DRSC05513 | axon bundles split apart | – |
| Klc | DRSC11203 | beaded; swollen axons | – |
| p | DRSC16560 | too many neurite branches | – |
| brv2 | DRSC10226 | abnormal cell clusters | – |
| Nadk1a | DRSC05431 | axon bundles split apart | – |
| dbo | DRSC11339 | abnormal cell clusters | – |
| mRpL3 | DRSC20100 | axon bundles split apart | – |
| CG1428 | DRSC03708 | axon bundles split apart | – |
| pgc | DRSC04099 | fewer cells | – |
| Atf6 | DRSC04889 | axon bundles split apart | – |
| mRpS5 | DRSC21380 | reduced axon outgrowth | – |
| Shark | DRSC07680 | beaded; swollen axons | – |
| pnt | DRSC17028 | reduced axon outgrowth | – |
| Wdr33 | DRSC12162 | axon bundles split apart | – |
| plh | DRSC12294 | axon bundles split apart | – |
| Dop2R | DRSC20686 | abnormal cell clusters | – |
| CG31050 | DRSC13883 | abnormal cell clusters | – |
| Rgk1 (retired record) | DRSC07344 | axon bundles split apart | – |
| Cp16 | DRSC11119 | abnormal cell clusters | – |
| Ugt37C1 | DRSC07416 | axon bundles split apart | – |
| CG18327 | DRSC06722 | axon bundles split apart | – |
| CG4269 | DRSC04457 | beaded; swollen axons | – |
| pcx | DRSC18188 | abnormal cell clusters | – |
| Jupiter | DRSC15205 | beaded; swollen axons | – |
| Rok | DRSC20277 | too many neurite branches | – |
| Dtg | DRSC15998 | sheet-like cell extensions | – |
| CG4866 | DRSC06899 | axon bundles split apart | – |
| Hrb87F | DRSC16708 | axon bundles split apart | – |
| serp | DRSC11035 | fewer cells | – |
| CG31797 | DRSC02476 | axon bundles split apart | – |
| Muc26B | DRSC02322 | cell fragments present | – |
| mRpS33 | DRSC14239 | axon bundles split apart | – |
| CR18228 | DRSC15317 | too many neurite branches | – |
| CG15478 | DRSC18057 | too many neurite branches | – |
| BEAF-32 | DRSC05927 | too many neurite branches | – |
| Six4 | DRSC11881 | fewer cells | – |
| Tm2 | DRSC16887 | axon bundles split apart | – |
| CG14630 | DRSC18653 | sheet-like cell extensions | – |
| SmydA-4 | DRSC19390 | too many neurite branches | – |
| Akh | DRSC08138 | beaded; swollen axons | – |
| CG42245 + MEP-1 | DRSC07993 | sheet-like cell extensions | – |
| rn | DRSC12544 | abnormal cell clusters | – |
| rn | DRSC12546 | sheet-like cell extensions | – |
| akirin | DRSC11000 | cell fragments present | – |
| CG3592 | DRSC18315 | abnormal cell clusters | – |
| mex1 | DRSC11368 | cell fragments present | – |
| Zasp52 | DRSC06269 | abnormal cell clusters | – |
| CG4168 | DRSC01447 | reduced axon outgrowth | – |
| CG4168 | DRSC21319 | axon bundles split apart | – |
| CG31126 | DRSC14623 | axon bundles split apart | – |
| RpL10 | DRSC11947 | reduced axon outgrowth | sheet-like cell extensions |
| eIF3f1 | DRSC12328 | too many neurite branches | – |
| CG4789 | DRSC19918 | sheet-like cell extensions | – |
| Rilpl | DRSC18494 | too many neurite branches | – |
| vex | DRSC19651 | fewer cells | – |
| side-VIII | DRSC06157 | too many neurite branches | – |
| CG13814 (retired record) | DRSC10069 | too many neurite branches | – |
| Tektin-C | DRSC09741 | too many neurite branches | – |
| Pcyt2 | DRSC08531 | axon bundles split apart | – |
| Snrk | DRSC07192 | axon bundles split apart | – |
| Muc68E | DRSC09146 | too many neurite branches | – |
| Atg12 | DRSC09803 | axon bundles split apart | – |
| dpr6 | DRSC09005 | reduced axon outgrowth | – |
| dpr6 | DRSC10162 | reduced axon outgrowth | – |
| CG17193 | DRSC15187 | beaded; swollen axons | – |
| CG14052 | DRSC18192 | axon bundles split apart | – |
| upd3 | DRSC19968 | abnormal cell clusters | – |
| vg | DRSC07715 | axon bundles split apart | too many neurite branches |
